Experimental findings from article PMC3108608 (Frontiers in Pharmacology, 2011) are described below.

The target of this test is T1, mPGES-1 (Homo sapiens, UniProt O14684).
T1 construct: microsomal preparations of IL-1β-stimulated A549 cells, a rich source of mPGES-1; endogenous in cells; host or cells: A549 cells, IL-1β-stimulated, microsomal fraction
T1 sequence (O14684 1-152): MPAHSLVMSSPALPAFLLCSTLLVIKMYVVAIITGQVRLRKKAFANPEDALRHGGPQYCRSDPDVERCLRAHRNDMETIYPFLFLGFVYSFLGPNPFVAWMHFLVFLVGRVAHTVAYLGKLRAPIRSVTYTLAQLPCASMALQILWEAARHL
Briefly: PGE2 synthase activity in microsomes of IL-1β-stimulated A549 cells. It is filed as biochemical.

By inhibition is commonly meant the percentage by which the read-out fell short of the control. With `CC(C)=CCCC1(C)C(CC=C(C)C)CC2(CC=C(C)C)C(=O)C1(C(=O)C(C)C)C(=O)C(CC=C(C)C)=C2O` (centres unmarked) [Hyp, Hyperforin], the “effect of decreasing the PGH2 concentration on potency” value is “did not significantly alter the potency”. Besides, the inhibition at 10 µM (read-out: inhibition of PGE2 formation (mPGES-1 activity)) came to 85 ± 2%.
